Assay results reported in ChEMBL document CHEMBL1129258, “Synthesis and structure-activity relationships of 2-pyridones: a novel series of potent DNA gyrase inhibitors as antibacterial agents” (J Med Chem, 1996).

Sequences of proteins named here, by UniProt entry; tags and fusion partners are left off.
UniProt P0AES4, whole entry, looked up: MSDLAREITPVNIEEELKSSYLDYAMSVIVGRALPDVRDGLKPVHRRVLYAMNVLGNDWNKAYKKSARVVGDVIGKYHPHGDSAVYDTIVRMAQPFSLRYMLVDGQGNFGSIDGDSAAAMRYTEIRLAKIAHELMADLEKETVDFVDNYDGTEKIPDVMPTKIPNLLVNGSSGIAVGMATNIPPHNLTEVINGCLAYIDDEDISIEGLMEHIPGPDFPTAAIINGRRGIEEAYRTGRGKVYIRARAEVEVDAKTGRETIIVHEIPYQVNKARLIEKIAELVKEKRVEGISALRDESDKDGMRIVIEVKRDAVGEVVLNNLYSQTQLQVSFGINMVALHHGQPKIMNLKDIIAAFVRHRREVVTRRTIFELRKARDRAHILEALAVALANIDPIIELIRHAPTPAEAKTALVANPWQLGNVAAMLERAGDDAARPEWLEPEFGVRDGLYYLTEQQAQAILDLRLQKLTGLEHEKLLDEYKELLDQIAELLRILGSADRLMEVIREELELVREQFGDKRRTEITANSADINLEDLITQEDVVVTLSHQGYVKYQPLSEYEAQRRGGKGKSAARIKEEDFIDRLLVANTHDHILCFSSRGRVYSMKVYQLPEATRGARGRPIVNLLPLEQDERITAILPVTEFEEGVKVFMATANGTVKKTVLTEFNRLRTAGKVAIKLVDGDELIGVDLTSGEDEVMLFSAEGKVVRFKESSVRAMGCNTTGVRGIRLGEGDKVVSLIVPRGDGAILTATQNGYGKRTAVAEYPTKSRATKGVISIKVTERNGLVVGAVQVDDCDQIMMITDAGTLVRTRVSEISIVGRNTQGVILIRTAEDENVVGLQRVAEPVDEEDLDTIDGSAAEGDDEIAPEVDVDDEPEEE

Assays:
[1] = target: T1, DNA gyrase (Escherichia coli) (UniProt P0AES6+P0AES4); assay: In vivo efficacy against Escherichia coli JUHL after oral administration; format: functional, organism-based; details: Escherichia coli K-12
[2] = target: T1, DNA gyrase (Escherichia coli); assay: In vivo efficacy against Escherichia coli JUHL by subcutaneous administration; format: functional, organism-based; details: Escherichia coli K-12

Cl.O=C(O)c1cn(C2CC2)c2cc(N3CCNCC3)c(F)cc2c1=O [CIPROFLOXACIN HYDROCHLORIDE]
ED50 [1]: 1 mg/kg
ED50 [2]: 0.1 mg/kg
